These are yes or no findings as the source states them, for the method shown. Some binding calls cover weakened binding; strength is not graded here.

Protein sequences, listed by entry. Tags and fused reporters are not part of them.
UniProt P20339: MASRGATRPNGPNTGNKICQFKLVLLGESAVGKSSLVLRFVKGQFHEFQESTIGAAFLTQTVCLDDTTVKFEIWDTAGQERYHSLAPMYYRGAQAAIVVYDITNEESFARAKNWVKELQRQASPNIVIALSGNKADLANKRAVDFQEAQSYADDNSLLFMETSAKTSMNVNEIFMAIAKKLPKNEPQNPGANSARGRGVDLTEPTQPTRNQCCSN
UniProt Q15075: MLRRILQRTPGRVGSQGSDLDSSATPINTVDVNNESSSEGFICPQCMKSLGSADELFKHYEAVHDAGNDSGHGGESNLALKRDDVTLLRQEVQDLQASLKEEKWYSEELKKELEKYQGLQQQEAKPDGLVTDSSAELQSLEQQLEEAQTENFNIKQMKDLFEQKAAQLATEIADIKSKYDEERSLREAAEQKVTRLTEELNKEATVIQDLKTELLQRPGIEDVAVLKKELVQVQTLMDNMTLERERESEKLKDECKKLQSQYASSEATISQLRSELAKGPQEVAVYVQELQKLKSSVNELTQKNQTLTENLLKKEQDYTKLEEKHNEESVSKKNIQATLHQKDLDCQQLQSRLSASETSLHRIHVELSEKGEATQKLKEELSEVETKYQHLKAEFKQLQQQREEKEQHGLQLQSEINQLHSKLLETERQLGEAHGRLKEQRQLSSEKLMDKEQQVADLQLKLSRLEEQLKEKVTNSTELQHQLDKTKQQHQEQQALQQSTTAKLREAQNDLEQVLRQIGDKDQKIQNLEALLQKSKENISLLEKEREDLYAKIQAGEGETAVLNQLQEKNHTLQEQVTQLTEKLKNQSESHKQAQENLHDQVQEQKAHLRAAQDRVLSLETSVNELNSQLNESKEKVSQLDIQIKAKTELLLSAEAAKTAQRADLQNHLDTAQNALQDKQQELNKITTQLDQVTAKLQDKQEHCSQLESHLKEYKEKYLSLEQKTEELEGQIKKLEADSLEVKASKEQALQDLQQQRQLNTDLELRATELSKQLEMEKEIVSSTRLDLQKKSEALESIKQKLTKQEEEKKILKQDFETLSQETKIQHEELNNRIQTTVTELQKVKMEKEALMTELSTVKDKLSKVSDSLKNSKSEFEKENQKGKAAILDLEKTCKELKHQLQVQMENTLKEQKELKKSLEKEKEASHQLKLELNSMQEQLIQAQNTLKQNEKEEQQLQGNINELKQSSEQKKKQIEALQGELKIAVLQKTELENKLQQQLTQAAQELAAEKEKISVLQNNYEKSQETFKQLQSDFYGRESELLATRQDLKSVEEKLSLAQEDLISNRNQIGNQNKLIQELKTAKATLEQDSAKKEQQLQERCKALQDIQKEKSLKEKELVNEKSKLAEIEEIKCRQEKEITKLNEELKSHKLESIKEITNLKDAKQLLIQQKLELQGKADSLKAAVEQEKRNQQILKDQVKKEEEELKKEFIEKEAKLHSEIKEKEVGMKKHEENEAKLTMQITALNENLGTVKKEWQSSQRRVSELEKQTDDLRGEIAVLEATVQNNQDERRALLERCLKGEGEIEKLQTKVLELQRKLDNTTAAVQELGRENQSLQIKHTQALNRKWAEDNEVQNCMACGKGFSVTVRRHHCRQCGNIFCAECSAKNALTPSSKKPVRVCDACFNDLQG

Two molecules from patent publication EP1088898A1 can be followed below.

The test deals with GST-Rab5 (UniProt P20339). Put plainly: affinity chromatography on GST-Rab5:GDP:Mg2+:AlF3 glutathione sepharose column.

Turning to EEA1 (from UniProt Q15075 1-1411), the binding entry is “binds”.

B1: human Rabankyrin-5 (protein)
chain: MAEEEVAKLEKHLMLLRQEYVKLQKKLAETEKRCALLAAQANKESSSESFISRLLAIVADLYEQEQYSDLKIKVGDRHISAHKFVLAARSDSWSLANLSSTKELDLSDANPEVTMTMLRWIYTDELEFREDDVFLTELMKLANRFQLQLLRERCEKGVMSLVNVRNCIRFYQTAEELNASTLMNYCAEIIASHWDDLRKEDFSSMSAQLLYKMIKSKTEYPLHKAIKVEREDVVFLYLIEMDSQLPGKLNEADHNGDLALDLALSRRLESIATTLVSHKADVDMVDKSGWSLLHKGIQRGDLFAATFLIKNGAFVNAATLGAQETPLHLVALYSSKKHSADVMSEMAQIAEALLQAGANPNMQDSKGRTPLHVSIMAGNEYVFSQLLQCKQLDLELKDHEGSTALWLAVQHITVSSDQSVNPFEDVPVVNGTSFDENSFAARLIQRGSHTDAPDTATGNCLLQRAAGAGNEAAALFLATNGAHVNHRNKWGETPLHTACRHGLANLTAELLQQGANPNLQTEEALPLPKEAASLTSLADSVHLQTPLHMAIAYNHPDVVSVILEQKANALHATNNLQIIPDFSLKDSRDQTVLGLALWTGMHTIAAQLLGSGAAINDTMSDGQTLLHMAIQRQDSKSALFLLEHQADINVRTQDGETALQLAIRNQLPLVVDAICTRGADMSVPDEKGNPPLWLALANNLEDIASTLVRHGCDATCWGPGPGGCLQTLLHRAIDENNEPTACFLIRSGCDVNSPRQPGANGEGEEEARDGQTPLHLAASWGLEETVQCLLEFGANVNAQDAEGRTPIHVAISSQHGVIIQLLVSHPDIHLNVRDRQGLTPFACAMTFKNNKSAEAILKRESGAAEQVDNKGRNFLHVAVQNSDIESVLFLISVHANVNSRVQDASKLTPLHLAVQAGSEIIVRNLLLAGAKVNELTKHRQTALHLAAQQDLPTICSVLLENGVDFAAVDENGNNALHLAVMHGRLNNIRVLLTECTVDAEAFNLRGQSPLHILGQYGKENAAAIFDLFLECMPGYPLDKPDADGSTVLLLAYMKGNANLCRAIVRSGARLGVNNNQGVNIFNYQVATKQLLFRLLDMLSKEPPWCDGSYCYECTARFGVTTRKHHCRHCGRLLCHKCSTKEIPIIKFDLNKPVRVCNICFDVLTLGGVS
For the molecule B1, the binding result was “binds”.
